No constants are given. Whether binding was seen depends on the method and setting. Some binding calls cover weakened binding; strength is not graded here.
Biological target: CD32B-Fc (UniProt P31994)
Assay: competition ELISA on CD32B-Fc; competitor anti-CD32B antibody at 50 ng/ml

Protein sequences, listed by entry. Tags and fused reporters are not part of them. Residues count along the entry.
UniProt P31994, residues 43-217: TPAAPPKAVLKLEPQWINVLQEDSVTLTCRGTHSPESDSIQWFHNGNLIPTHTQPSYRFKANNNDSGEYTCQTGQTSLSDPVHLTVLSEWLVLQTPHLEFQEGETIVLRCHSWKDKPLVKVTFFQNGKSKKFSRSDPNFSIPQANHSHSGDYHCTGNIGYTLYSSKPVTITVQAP

| binding | Binder |
| --- | --- |
| binds | CD32B-CD79-1 bispecific diabody (bispecific antibody) chain 1: DVVMTQSPLSLPVTLGQPASISCKSSQSLLDSDGKTYLNWFQQRPGQSPNRLIYLVSKLDSGVPDRFSGSGSGTDFTLKISRVEAEDVGVYYCWQGTHFPLTFGGGTKLEIKGGGSGGGGEVQLVESGGGLVQPGGSLRLSCAASGFTFSDAWMDWVRQAPGKGLEWVAEIRNKAKNHATYYAESVIGRFTISRDDAKNSLYLQMNSLRAEDTAVYYCGALGLDYWGQGTLVTVSSLGGC chain 2: DIQMTQSPSSLSASVGDRVTITCRASQEISGYLSWLQQKPGKAPRRLIYAASTLDSGVPSRFSGSESGTEFTLTISSLQPEDFATYYCLQYFSYPLTFGGGTKVEIKGGGSGGGGQVQLVQSGAEVKKPGASVKVSCKASGYTFTSYWMNWVRQAPGQGLEWIGMIDPSDSETHYNQMFKDRVTMTTDTSTSTAYMELRSLRSDDTAVYYCARAMGYWGQGTTVTVSSLGGC |
| binds | CD32B-CD79-2 bispecific diabody (bispecific antibody) chain 1: DVVMTQSPLSLPVTLGQPASISCKSSQSLLDSDGKTYLNWFQQRPGQSPNRLIYLVSKLDSGVPDRFSGSGSGTDFTLKISRVEAEDVGVYYCWQGTHFPLTFGGGTKLEIKGGGSGGGGEVQLVESGGGLVQPGGSLRLSCAASGFTFSDAWMDWVRQAPGKGLEWVAEIRNKAKNHATYYAESVIGRFTISRDDAKNSLYLQMNSLRAEDTAVYYCGALGLDYWGQGTLVTVSSLGGC chain 2: DIQMTQSPSSLSASVGDRVTITCRASQEISGYLSWLQQKPGKAPRRLIYAASTLDSGVPSRFSGSESGTEFTLTISSLQPEDFATYYCLQYFSYPLTFGGGTKVEIKGGGSGGGGQVQLVQSGAEVKKPGASVKVSCKASGYTFTSYWMNWVRQAPGQGLEWIGMIDPSDSETHYNQKFKDRVTMTTDTSTSTAYMELRSLRSDDTAVYYCARAMGYWGQGTTVTVSSLGGC |

Reference: patent US20100174053A1 (published 2010)
